For two compounds, OD results are on record in patent publication US9256062B2, “Electrowetting display apparatus and dye composition for electrowetting display” (FUJIFILM CORPORATION, priority 2012, dated 2016).

The data set is described as follows: OD (image density) of dye ink in electrowetting test cell, spectroradiometer. To be noted: at maximum absorption wavelength, per 1 μm of oil layer.

Turning to `CCCCC(CC)c1nnc2n1N=C(C(C)(C)C)/C2=N/c1c(C(C)(C)C)nn2c(C(CC)CCCC)n[nH]c12` (stereo not drawn) [Exemplary Compound 1], the OD (dye concentration 10% by mass) is given as 0.7. For the compound `CCCCC(CC)c1n[nH]c2c(/N=C3/C(C#N)=C(C(=O)OC4C(C(C)(C)C)CC(C)CC4C(C)(C)C)c4nc(C(C)(C)C)nn43)c(C(C)(C)C)nn12` (stereo not drawn) [Exemplary Compound 3], the OD is given as 0.8 (dye concentration 10% by mass) and 2.8 (dye concentration 40% by mass).
